These are yes or no findings as the source states them, for the method shown. Some results given as binding are weak or reduced against the parent protein; the word gives no strength. Sequences can lack the tags named with a protein.
What was measured:
[1] = biological target: GAL4^AD-IN(1-210) hybrid protein (GAL4 activation domain fused to HIV integrase amino acids 1-210) (HIV); assay: yeast two-hybrid, description of plasmid TSB400/pBal26
[2] = biological target: GAL4^AD-IN(1-210) hybrid protein (GAL4 activation domain fused to HIV integrase amino acids 1-210) (HIV); assay: yeast two-hybrid, description of plasmid TSB413

B1: GAL4^BD-PR^LBD-INF5 hybrid protein (GAL4 DNA binding domain fused to the progesterone receptor ligand binding domain and the HIV integrase inhibitory peptide … (other)
chain: MKLLSSIEQACDICRLKKLKCSKEKPKCAKCLKNNWECRYSPKTKRSPLTRAHLTEVESRLERLEQLFLLIFPREDLDMILKMDSLQDIKALLTGLFVQDNVNKDAVTDRLASVETDMPLTLRQHRISATSSSEESSNKGQRQLTVSPVLQYPALTMIQLIPPLINLLMSIEPDVIYAGHDNTKPDTSSSLLTSLNQLGERQLLSVVKWSKSLPGFRNLHIDDQITLIQYSWMSLMVFGLGWRSYKHVSGQMLYFAPDLILNEQRMKESSFYSLCLTMWQIPQEFVKLQVSQEEFLCMKVLLLLNTIPLEGLRSQTQFEEMRSSYIRELIKAIGLRQKGVVSSSQRFYQLTKLLDNLHDLVKQLHLYCLNTFIQSRALSVEFPEMMSEVIAAQLPKILAGMVKPLLFHKALYETILILLFLDVDT
notes: also called GAL4^BD-PR^LBD-IN5
- binding [1]: binds
- binding [2]: binds
